These are yes or no findings as the source states them, for the method shown. In cells and extracts the contact can be indirect. Here binding means that the protein was enriched with, or labelled near, the bait; the list need not be complete.
Molecular target: R-catcher (Twin StrepII-His6-ZZ_(122-175)^N132D) (human) (UniProt Q13501)
Test: affinity purification with mass spectrometry; large-scale R-catcher pull-down: 10 mg lysate of HeLa cells (MG132 plus thapsigargin), pre-cleared on D129A mutant R-catcher beads, on R-catcher-sepharose, 3 h, 4 °C, without or with 25 mM RA or AR dipeptide; elution with biotin; LC-MS/MS; only the target purified

B1: Dermcidin, endogenous (hit of the R-catcher LC-MS/MS) (protein, UniProt P81605 20-110)
chain: YDPEAASAPGSGNPCHEASAAQKENAGEDPGLARQAPKPRKQRSSLLEKGLDGAKKAVGGLGKLGKDAVEDLESVGKGAVHDVKDVLDSVL
With B1 the binding was “binds”.

Source: publication PMC8038991, “R-catcher, a potent molecular tool to unveil the arginylome” (Cellular and Molecular Life Sciences: CMLS, 2021)
